All values are for the listed drug together with BI-D1870 (1 µM): CC(C)CCN1c2nc(Nc3cc(F)c(O)c(F)c3)ncc2N(C)C(=O)C1C (stereo not given)

Drug key:
MK-2206 (2 µM): NC1(c2ccc(-c3nc4ccn5c(=O)[nH]nc5c4cc3-c3ccccc3)cc2)CCC1
GSK650394 (0.8 µM): O=C(O)c1ccc(-c2c[nH]c3ncc(-c4ccccc4)cc23)cc1C1CCCC1
docetaxel (0.0005 µM): CC(=O)O[C@@]12CO[C@@H]1C[C@H](O)[C@@]1(C)C(=O)[C@H](O)C3=C(C)[C@@H](OC(=O)[C@H](O)[C@@H](NC(=O)OC(C)(C)C)c4ccccc4)C[C@@](O)([C@@H](OC(=O)c4ccccc4)[C@H]21)C3(C)C
AS-252424 (5 µM): O=C1NC(=O)/C(=C/c2ccc(-c3ccc(F)cc3O)o2)S1
tozasertib (0.03 µM): Cc1cc(Nc2cc(N3CCN(C)CC3)nc(Sc3ccc(NC(=O)C4CC4)cc3)n2)n[nH]1
dasatinib (0.02 µM): Cc1nc(Nc2ncc(C(=O)Nc3c(C)cccc3Cl)s2)cc(N2CCN(CCO)CC2)n1
KU-0063794 (0.1 µM): COc1ccc(-c2ccc3c(N4CCOCC4)nc(N4C[C@@H](C)O[C@@H](C)C4)nc3n2)cc1CO
dorsomorphin (2 µM): c1cc(-c2cnn3cc(-c4ccc(OCCN5CCCCC5)cc4)cnc23)ccn1
ZM336372 (10 µM): Cc1ccc(NC(=O)c2cccc(N(C)C)c2)cc1NC(=O)c1ccc(O)cc1
NVP-BEZ235 (0.02 µM): Cn1c(=O)n(-c2ccc(C(C)(C)C#N)cc2)c2c3cc(-c4cnc5ccccc5c4)ccc3ncc21
lenalidomide (5 µM): Nc1cccc2c1CN(C1CCC(=O)NC1=O)C2=O (stereo not given)
GW2580 (5 µM): COc1ccc(COc2ccc(Cc3cnc(N)nc3N)cc2OC)cc1
lestaurtinib (0.02 µM): C[C@]12O[C@H](C[C@]1(O)CO)n1c3ccccc3c3c4c(c5c6ccccc6n2c5c31)CNC4=O
RKI-983 (2 µM): C[C@@H](N)c1ccc(C(=O)Nc2ccnc3[nH]ccc23)cc1
everolimus (0.1 µM): CO[C@H]1C[C@@H]2CC[C@@H](C)[C@@](O)(O2)C(=O)C(=O)N2CCCC[C@H]2C(=O)O[C@H]([C@H](C)C[C@@H]2CC[C@@H](OCCO)[C@H](OC)C2)CC(=O)[C@H](C)/C=C(\C)[C@@H](O)[C@@H](OC)C(=O)[C@H](C)C[C@H](C)/C=C/C=C/C=C/1C
cediranib (2 µM): COc1cc2c(Oc3ccc4[nH]c(C)cc4c3F)ncnc2cc1OCCCN1CCCC1
crizotinib (1 µM): C[C@@H](Oc1cc(-c2cnn(C3CCNCC3)c2)cnc1N)c1c(Cl)ccc(F)c1Cl
fludarabine (1 µM): Nc1nc(F)nc2c1ncn2[C@@H]1O[C@H](CO)[C@@H](O)[C@@H]1O
AZD7762 (0.1 µM): NC(=O)Nc1cc(-c2cccc(F)c2)sc1C(=O)N[C@H]1CCCNC1
BI-78D3 (1 µM): O=c1[nH]nc(Sc2ncc([N+](=O)[O-])s2)n1-c1ccc2c(c1)OCCO2
LFM-A13 (10 µM): C/C(O)=C(\C#N)C(=O)Nc1cc(Br)ccc1Br
bortezomib (0.005 µM): CC(C)C[C@H](NC(=O)[C@H](Cc1ccccc1)NC(=O)c1cnccn1)B(O)O
PF-562271 (0.4 µM): CN(c1ncccc1CNc1nc(Nc2ccc3c(c2)CC(=O)N3)ncc1C(F)(F)F)S(C)(=O)=O
embelin (6 µM): CCCCCCCCCCCC1=C(O)C(=O)C=C(O)C1=O
FH535 (5 µM): Cc1cc([N+](=O)[O-])ccc1NS(=O)(=O)c1cc(Cl)ccc1Cl
vismodegib (5 µM): CS(=O)(=O)c1ccc(C(=O)Nc2ccc(Cl)c(-c3ccccn3)c2)c(Cl)c1

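Human melanoma cells were exposed to two drugs together for 72 h in 1,536-well plates and read by automated microscopy after fixing and staining. Each value is the cleaved-PARP-positive fraction of nuclei relative to DMSO-treated wells, in %, so that 100 equals the control and higher values mean more apoptosis. Concentrations were fixed for each drug; these are the higher of two levels. These are primary screening values without error estimates. Basal and induced levels differ widely between cell lines.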
This is part of the screen, not chosen by result.

GW2580 gave MeWo: 218; WM451Lu: 44.6; LOX IMVI: 157. For docetaxel the values were MeWo: 599; WM451Lu: 3870; LOX IMVI: 110. For bortezomib the values were MeWo: 2990; WM451Lu: 4690; LOX IMVI: 179. Results for RKI-983 are MeWo: 393; WM451Lu: 254; LOX IMVI: 243.

Results for AS-252424 are MeWo: 160; WM451Lu: 74.7; LOX IMVI: 59.2. Results for lestaurtinib are MeWo: 96.7; WM451Lu: 486; LOX IMVI: 226. Results for tozasertib are MeWo: 129; WM451Lu: 144; LOX IMVI: 104. For FH535 the values were MeWo: 111; WM451Lu: 40.1; LOX IMVI: 129.

vismodegib gave MeWo: 122; WM451Lu: 105; LOX IMVI: 142. With KU-0063794 the screen read MeWo: 90.1; WM451Lu: 61.8; LOX IMVI: 345. With dasatinib the screen read MeWo: 260; WM451Lu: 199; LOX IMVI: 237. For LFM-A13 the values were MeWo: 129; WM451Lu: 130; LOX IMVI: 124.

With GSK650394 the screen read MeWo: 47.7; WM451Lu: 335; LOX IMVI: 125. fludarabine gave MeWo: 105; WM451Lu: 189; LOX IMVI: 291. With ZM336372 the screen read MeWo: 111; WM451Lu: 248; LOX IMVI: 151. With crizotinib the screen read MeWo: 149; WM451Lu: 209; LOX IMVI: 51.1.

With BI-78D3 the screen read MeWo: 113; WM451Lu: 36.9; LOX IMVI: 228. For lenalidomide the values were MeWo: 147; WM451Lu: 56.1; LOX IMVI: 118. Results for dorsomorphin are MeWo: 117; WM451Lu: 157; LOX IMVI: 96.8. Results for MK-2206 are MeWo: 77.4; WM451Lu: 124; LOX IMVI: 214.

Results for embelin are MeWo: 163; WM451Lu: 70.7; LOX IMVI: 125. For NVP-BEZ235 the values were MeWo: 58.2; WM451Lu: 177; LOX IMVI: 143. With everolimus the screen read MeWo: 238; WM451Lu: 1320; LOX IMVI: 149. With cediranib the screen read MeWo: 73.0; WM451Lu: 105; LOX IMVI: 100.

Results for AZD7762 are MeWo: 105; WM451Lu: 256; LOX IMVI: 112. With PF-562271 the screen read MeWo: 113; WM451Lu: 352; LOX IMVI: 138.

The last 2 entries again:

* AZD7762 : MeWo: 105; WM451Lu: 256; LOX IMVI: 112
* PF-562271 : MeWo: 113; WM451Lu: 352; LOX IMVI: 138

Data from the primary screen of doi:10.1371/journal.pone.0140310, rounded.